Measurements from the supplement of paper PMC12823440, “Inhibitors supercharge kinase turnover through native proteolytic circuits” (Nature, 2025).
Structures can show the parent of a compound that is named as a salt. The list shows a part of the results. The calls rarely recur for the same compound in another form.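 Kinases were expressed as nanoluciferase fusions in K562 cells and luminescence was read every 4 h between 2 and 18 h as percent of control, DMSO set to 100% and a positive control to 0%. A time point counts as decreased when the signal drops significantly (2 sigma). The hit call is the authors' own, does not follow from the count of time points alone, and its rule is not shown.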

Sequences of proteins named here, by UniProt entry; tags and fusion partners are left off. A change or cut given only in a name is not applied to a line headed by its entry.
UniProt O96013: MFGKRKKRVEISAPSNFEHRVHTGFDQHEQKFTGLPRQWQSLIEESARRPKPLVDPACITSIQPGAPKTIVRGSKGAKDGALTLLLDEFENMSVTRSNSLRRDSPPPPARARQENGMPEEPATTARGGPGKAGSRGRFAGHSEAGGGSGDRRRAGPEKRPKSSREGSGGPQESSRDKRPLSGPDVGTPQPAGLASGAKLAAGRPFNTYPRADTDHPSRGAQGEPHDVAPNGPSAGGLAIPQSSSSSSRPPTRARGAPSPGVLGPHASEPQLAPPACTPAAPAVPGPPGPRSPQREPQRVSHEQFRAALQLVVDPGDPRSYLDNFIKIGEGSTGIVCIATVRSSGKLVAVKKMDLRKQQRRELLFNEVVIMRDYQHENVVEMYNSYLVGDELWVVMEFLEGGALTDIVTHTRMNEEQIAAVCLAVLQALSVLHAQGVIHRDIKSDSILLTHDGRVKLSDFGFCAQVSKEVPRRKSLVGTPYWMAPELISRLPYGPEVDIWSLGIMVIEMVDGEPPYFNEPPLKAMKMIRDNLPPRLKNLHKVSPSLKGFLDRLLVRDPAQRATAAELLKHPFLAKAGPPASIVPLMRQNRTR
UniProt Q96KB5: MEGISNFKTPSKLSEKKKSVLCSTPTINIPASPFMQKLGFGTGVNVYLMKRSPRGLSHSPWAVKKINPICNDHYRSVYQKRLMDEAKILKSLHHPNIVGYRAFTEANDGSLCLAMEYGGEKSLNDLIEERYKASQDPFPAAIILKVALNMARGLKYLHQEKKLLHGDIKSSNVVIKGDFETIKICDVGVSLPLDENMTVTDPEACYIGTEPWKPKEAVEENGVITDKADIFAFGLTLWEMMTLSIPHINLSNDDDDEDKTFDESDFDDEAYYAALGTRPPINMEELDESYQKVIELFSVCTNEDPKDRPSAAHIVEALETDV
UniProt P09619, whole entry: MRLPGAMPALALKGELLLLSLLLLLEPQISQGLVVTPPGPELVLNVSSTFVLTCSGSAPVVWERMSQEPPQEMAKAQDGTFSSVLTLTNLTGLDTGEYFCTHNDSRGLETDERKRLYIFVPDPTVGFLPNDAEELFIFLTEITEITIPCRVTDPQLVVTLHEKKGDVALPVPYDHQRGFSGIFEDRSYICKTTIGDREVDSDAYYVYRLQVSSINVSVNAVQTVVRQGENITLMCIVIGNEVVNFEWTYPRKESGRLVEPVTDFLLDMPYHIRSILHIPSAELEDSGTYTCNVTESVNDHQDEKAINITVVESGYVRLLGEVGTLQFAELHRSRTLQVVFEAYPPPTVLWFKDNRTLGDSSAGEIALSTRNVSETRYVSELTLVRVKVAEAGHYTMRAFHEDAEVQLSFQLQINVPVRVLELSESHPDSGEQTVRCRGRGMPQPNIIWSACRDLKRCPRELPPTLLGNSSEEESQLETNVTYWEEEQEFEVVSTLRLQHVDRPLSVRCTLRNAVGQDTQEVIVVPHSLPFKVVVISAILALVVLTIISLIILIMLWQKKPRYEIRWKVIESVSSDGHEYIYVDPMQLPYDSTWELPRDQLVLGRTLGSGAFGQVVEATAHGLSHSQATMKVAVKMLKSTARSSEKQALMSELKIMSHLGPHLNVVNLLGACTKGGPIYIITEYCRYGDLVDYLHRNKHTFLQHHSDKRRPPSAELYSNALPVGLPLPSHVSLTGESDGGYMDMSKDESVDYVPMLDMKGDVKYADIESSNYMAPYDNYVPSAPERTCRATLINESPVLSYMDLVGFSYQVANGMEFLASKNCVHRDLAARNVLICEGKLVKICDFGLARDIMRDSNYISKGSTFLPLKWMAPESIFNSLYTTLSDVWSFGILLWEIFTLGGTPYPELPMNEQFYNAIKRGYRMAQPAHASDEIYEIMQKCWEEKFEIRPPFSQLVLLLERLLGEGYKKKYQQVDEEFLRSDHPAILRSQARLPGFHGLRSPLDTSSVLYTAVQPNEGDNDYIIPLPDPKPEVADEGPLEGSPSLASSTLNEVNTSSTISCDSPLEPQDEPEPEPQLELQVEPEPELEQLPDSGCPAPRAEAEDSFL
UniProt Q15118, whole entry, looked up: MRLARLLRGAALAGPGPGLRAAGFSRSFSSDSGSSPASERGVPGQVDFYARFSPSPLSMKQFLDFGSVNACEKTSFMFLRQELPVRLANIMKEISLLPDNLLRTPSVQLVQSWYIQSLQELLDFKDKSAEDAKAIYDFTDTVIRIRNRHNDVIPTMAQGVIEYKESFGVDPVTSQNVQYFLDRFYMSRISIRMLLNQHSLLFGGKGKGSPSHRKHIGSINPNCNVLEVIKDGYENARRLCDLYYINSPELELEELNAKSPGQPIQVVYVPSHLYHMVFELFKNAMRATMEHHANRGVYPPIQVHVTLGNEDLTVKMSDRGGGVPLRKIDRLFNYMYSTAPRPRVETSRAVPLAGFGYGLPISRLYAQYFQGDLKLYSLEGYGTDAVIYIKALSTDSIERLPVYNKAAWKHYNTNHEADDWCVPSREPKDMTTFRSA
UniProt O15530: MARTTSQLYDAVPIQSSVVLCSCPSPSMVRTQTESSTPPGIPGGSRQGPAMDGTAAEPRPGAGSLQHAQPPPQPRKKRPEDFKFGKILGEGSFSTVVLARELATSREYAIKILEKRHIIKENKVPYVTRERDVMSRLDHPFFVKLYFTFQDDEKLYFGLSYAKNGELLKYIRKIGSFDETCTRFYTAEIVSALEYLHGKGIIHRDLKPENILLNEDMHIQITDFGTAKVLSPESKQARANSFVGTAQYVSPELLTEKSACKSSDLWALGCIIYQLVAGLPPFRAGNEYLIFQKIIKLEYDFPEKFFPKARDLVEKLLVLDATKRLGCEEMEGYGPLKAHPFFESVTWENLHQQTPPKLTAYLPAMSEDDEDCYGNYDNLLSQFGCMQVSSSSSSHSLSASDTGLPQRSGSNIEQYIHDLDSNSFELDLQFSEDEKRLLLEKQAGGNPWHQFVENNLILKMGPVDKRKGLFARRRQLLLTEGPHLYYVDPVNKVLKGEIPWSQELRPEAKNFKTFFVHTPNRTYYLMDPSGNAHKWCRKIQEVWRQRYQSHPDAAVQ
UniProt P42356, whole entry, looked up: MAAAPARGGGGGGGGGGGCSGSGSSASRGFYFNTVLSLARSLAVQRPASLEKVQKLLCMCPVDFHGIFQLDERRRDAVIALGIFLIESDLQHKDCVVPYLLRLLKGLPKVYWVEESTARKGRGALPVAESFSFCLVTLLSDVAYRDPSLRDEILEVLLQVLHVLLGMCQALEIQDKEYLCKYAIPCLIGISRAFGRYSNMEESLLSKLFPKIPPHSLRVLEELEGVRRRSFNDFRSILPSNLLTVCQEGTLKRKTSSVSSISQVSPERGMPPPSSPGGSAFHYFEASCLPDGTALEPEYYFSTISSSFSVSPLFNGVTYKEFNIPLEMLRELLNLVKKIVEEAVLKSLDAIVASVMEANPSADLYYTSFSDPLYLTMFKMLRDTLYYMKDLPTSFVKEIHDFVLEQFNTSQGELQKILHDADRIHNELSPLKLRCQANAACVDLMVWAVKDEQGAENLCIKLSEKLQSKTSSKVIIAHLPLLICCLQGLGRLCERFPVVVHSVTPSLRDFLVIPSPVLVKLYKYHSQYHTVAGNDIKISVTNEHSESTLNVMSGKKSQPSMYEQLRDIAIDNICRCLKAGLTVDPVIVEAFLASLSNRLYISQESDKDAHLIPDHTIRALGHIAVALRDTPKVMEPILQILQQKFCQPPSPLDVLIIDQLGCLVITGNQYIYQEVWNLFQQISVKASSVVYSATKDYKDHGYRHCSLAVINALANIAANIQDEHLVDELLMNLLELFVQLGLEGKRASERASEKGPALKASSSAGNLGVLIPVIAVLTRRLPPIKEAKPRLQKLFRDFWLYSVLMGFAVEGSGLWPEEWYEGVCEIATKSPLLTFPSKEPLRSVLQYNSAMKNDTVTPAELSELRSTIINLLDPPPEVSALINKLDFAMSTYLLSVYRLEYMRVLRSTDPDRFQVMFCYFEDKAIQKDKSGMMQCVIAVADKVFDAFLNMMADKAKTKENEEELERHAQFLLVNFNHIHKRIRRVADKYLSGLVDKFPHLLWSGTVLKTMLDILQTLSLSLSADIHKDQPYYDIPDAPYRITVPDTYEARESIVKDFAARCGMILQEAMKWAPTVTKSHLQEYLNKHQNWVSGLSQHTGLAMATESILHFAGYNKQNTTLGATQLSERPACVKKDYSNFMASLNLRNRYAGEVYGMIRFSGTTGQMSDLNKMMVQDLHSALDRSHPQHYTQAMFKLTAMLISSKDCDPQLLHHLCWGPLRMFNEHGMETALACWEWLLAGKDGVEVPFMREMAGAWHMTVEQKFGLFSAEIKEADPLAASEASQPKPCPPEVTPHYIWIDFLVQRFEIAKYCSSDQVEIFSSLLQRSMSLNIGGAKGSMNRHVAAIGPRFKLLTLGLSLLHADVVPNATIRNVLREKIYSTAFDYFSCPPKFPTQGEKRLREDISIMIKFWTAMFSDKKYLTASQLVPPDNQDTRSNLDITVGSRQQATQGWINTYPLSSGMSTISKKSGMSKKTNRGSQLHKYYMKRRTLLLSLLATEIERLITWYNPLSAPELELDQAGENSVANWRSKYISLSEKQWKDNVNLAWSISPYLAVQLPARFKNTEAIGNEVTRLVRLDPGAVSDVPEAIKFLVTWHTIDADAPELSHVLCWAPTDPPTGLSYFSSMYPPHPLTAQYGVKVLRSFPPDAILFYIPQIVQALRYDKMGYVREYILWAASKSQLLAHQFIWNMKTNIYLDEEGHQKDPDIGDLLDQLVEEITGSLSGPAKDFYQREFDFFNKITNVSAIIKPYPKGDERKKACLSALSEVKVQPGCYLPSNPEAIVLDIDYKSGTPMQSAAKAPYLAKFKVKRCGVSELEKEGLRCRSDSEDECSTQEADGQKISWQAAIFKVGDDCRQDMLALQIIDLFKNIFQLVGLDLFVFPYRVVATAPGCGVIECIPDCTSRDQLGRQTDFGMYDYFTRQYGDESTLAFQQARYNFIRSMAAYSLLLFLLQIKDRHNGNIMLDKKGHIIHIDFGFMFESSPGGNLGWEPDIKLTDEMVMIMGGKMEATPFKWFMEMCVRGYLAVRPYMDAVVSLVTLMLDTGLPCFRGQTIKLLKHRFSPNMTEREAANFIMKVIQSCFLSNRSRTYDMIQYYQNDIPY
UniProt P53350, whole entry: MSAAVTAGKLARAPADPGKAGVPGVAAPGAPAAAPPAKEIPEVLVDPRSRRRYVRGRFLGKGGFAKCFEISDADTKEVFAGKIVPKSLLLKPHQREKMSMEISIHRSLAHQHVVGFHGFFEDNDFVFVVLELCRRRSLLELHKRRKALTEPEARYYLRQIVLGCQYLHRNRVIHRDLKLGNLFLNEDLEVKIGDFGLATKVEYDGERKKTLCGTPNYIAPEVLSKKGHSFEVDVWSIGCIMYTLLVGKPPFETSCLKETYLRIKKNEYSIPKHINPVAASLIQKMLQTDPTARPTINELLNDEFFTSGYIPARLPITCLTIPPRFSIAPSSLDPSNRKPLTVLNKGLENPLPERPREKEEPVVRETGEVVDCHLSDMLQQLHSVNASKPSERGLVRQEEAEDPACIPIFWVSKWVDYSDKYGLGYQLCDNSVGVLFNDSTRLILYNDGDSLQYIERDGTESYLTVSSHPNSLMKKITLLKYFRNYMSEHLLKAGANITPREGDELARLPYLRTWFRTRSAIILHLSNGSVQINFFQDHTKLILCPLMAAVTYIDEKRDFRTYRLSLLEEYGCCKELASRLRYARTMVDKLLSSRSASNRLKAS
UniProt Q13131: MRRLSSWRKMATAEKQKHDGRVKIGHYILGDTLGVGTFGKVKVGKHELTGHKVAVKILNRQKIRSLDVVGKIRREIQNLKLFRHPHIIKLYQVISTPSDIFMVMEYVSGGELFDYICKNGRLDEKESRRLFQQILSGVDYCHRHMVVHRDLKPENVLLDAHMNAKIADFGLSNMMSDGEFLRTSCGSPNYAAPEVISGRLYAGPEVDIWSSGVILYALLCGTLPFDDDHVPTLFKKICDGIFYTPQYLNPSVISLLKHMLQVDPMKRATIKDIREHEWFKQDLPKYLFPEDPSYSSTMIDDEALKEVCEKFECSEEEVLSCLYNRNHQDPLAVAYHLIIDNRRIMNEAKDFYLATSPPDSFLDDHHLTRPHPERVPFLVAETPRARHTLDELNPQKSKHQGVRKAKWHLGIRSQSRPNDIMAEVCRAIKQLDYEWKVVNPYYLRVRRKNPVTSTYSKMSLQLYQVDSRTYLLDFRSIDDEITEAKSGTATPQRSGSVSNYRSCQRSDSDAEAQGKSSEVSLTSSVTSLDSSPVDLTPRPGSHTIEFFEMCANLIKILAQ

Key:
Assay in all cases: number of time points (of 5) at which kinase-Nluc abundance scored as decreased, DMSO-normalised (count); higher = more persistent destabilization
Conditions in all cases: K562; 2-18 h
[1] = target: NTRK3 (UniProt Q16288)
[2] = target: PAK4 (UniProt O96013)
[3] = target: PBK (UniProt Q96KB5)
[4] = target: PDGFRB (UniProt P09619)
[5] = target: PDK1 (UniProt Q15118)
[6] = target: PDPK1 (UniProt O15530)
[7] = target: PIK4CA (UniProt P42356)
[8] = target: PIK4CB (UniProt Q9UBF8)
[9] = target: PLK1 (UniProt P53350)
[10] = target: PRKAA1 (UniProt Q13131)

Row | Compound | number of time points [1] | number of time points [2] | number of time points [3] | number of time points [4] | number of time points [5] | number of time points [6] | number of time points [7] | number of time points [8] | number of time points [9] | number of time points [10]
1 | Cn1sc(=O)n(Cc2ccccc2)c1=O (10 µM) | 0 | 0 | 0 | 0 | 0 | 0 | 0 | 0 | 0 | 0
2 | CC(C)c1cnn2c(NCc3ccccc3)cc(NCCCCCCN)nc12 [BS-181 (hydrochloride)] (10 µM) | 0 | 0 | 0 | 0 | 0 | 0 | 0 | 0 | 0 | 0
3 | C[C@H]1CNC(=O)c2cnn3ccc(nc23)N[C@H](C)c2cc(F)ccc2O1 [Repotrectinib] (2.5 µM) | 1 | 1 | 0 | 0 | 0 | 4 | 2 | 1 | 2 | 1
4 | C[C@@]12CCc3occc3[C@H]1CC[C@@]13C[C@@H](CC[C@H]12)[C@@](O)(CO)C3 [Cafestol] (10 µM) | 0 | 0 | 0 | 0 | 0 | 0 | 0 | 0 | 0 | 0
5 | C=CC(=O)Nc1cccc(Oc2nc(Nc3ccc(N4CCN(C)CC4)cc3)ncc2Cl)c1 (2.5 µM) | 0 | 0 | 0 | 0 | 0 | 0 | 0 | 0 | 0 | 0
6 | NC(=O)c1cccc2c(N[C@H](CN3CCC3)c3ccc(Cl)c(C(F)(F)F)c3)ncnc12 (10 µM) | 0 | 0 | 0 | 0 | 0 | 0 | 0 | 0 | 0 | 0
7 | CNC(=O)c1ccc(-c2cnc3ncc(Cc4ccc5ncccc5c4)n3n2)cc1F [Capmatinib] (10 µM) | 0 | 0 | 0 | 0 | 0 | 0 | 0 | 0 | 0 | 0
8 | C=CC(=O)N1CCN(c2nc(OC[C@@H]3CCCN3C)nc3c2CCN(c2cccc4cccc(C)c24)C3)C[C@@H]1CC#N (2.5 µM) | 0 | 0 | 0 | 0 | 0 | 0 | 0 | 0 | 0 | 0
9 | CN(c1ccc(C(F)(F)F)cc1)S(=O)(=O)c1ccc(C(=O)Nc2nc(-c3ccccn3)cs2)cc1 (2.5 µM) | 0 | 0 | 0 | 2 | 0 | 0 | 0 | 0 | 0 | 0
10 | COc1ccc(C2CC(c3ccc(Cl)cc3)=NN2c2nc(-c3ccncc3)cs2)cc1 (stereo not given) [mTOR inhibitor-8] (10 µM) | 0 | 0 | 0 | 0 | 0 | 0 | 0 | 0 | 0 | 0
11 | Cc1ncc(F)c(Nc2n[nH]c3c2CN(C(=O)N2C[C@@H](C)N(CC4CCOCC4)C[C@@H]2C)C3(C)C)n1 (10 µM) | 0 | 0 | 0 | 0 | 0 | 0 | 0 | 0 | 0 | 0
12 | N#Cc1c[nH]c2ccc(-c3ccc(-c4c(O)cccc4O)cc3)cc12 (10 µM) | 0 | 0 | 0 | 0 | 0 | 0 | 0 | 0 | 0 | 0
13 | CC[C@H](C)[C@H](NC(=O)[C@H](CCCCN)NC(=O)[C@H](CC(C)C)NC(=O)[C@@H]1CCCN1C(=O)[C@H](CCC(=O)O)NC(=O)[C@H](Cc1ccc(O)cc1)NC(=O)[C@@H](NC(=O)[C@H](CO)NC(=O)CNC(=O)[C@H](CO)NC(=O)[C@H](CCCN=C(N)N)NC(=O)[C@H](CCCCN)NC(=O)[C@@H](NC(=O)[C@@H](N)CCCN=C(N)N)[C@@H](C)O)C(C)C)C(=O)O [Malantide] (10 µM) | 0 | 0 | 0 | 0 | 0 | 0 | 0 | 0 | 0 | 0
14 | N#C/C(=C\c1ccc[nH]1)c1ccc(Cl)c(Cl)c1 (2.5 µM) | 0 | 0 | 0 | 0 | 0 | 0 | 0 | 0 | 0 | 0
15 | Cc1occ2c1C(=O)c1c(O)ccc(O)c1C2 (2.5 µM) | 0 | 0 | 0 | 0 | 0 | 0 | 0 | 0 | 0 | 0
16 | COC(=O)[C@]1(C)CC[C@]2(C(=O)O[C@@H]3O[C@H](CO)[C@@H](O)[C@H](O)[C@H]3O)CC[C@]3(C)C(=CC[C@@H]4[C@@]5(C)C[C@H](O)[C@H](O[C@@H]6OC[C@@H](O[C@@H]7O[C@H](CO)[C@@H](O)[C@H](O)[C@H]7O)[C@H](O)[C@H]6O)[C@@](C)(CO)C5CC[C@]43C)[C@H]2C1 (stereo not given in full) [Esculentoside H] (10 µM) | 0 | 0 | 0 | 0 | 0 | 0 | 0 | 0 | 0 | 0
17 | CCS(=O)(=O)c1ccc(Oc2cc(O[C@@H](C)CO)cc(C(=O)Nc3ccn(C)n3)c2)cn1 (10 µM) | 0 | 0 | 0 | 0 | 0 | 0 | 0 | 0 | 0 | 0
18 | O=C(Nc1nccs1)C(c1cc(F)ccc1O)N1Cc2ccc(-c3ccc(N4CCNCC4)cc3)cc2C1=O (racemic) (10 µM) | 0 | 0 | 0 | 0 | 0 | 0 | 0 | 0 | 0 | 0
19 | CCn1c(-c2nonc2N)nc2c(C#CCO)ncc(OCCCN)c21 [AKT Kinase Inhibitor] (10 µM) | 0 | 0 | 0 | 0 | 0 | 0 | 0 | 0 | 0 | 0
20 | C=CC(=O)Nc1cc(C(=O)NC)cc(-c2n[nH]c3ccccc23)c1 (10 µM) | 0 | 0 | 0 | 0 | 0 | 0 | 0 | 0 | 0 | 1
21 | C[C@@H]1CC[C@]2(C(=O)O)CC[C@]3(C)C(=CC[C@@H]4[C@@]5(C)CC[C@H](O)[C@@](C)(CO)[C@@H]5CC[C@]43C)[C@@H]2[C@]1(C)O [Rotundic acid] (10 µM) | 0 | 0 | 0 | 0 | 0 | 0 | 0 | 0 | 0 | 0
22 | Cc1ccc(-c2csc(Cn3nc(CC4OCCCO4)c4ccccc4c3=O)n2)cc1 (10 µM) | 0 | 0 | 0 | 0 | 0 | 0 | 0 | 0 | 0 | 0
23 | CC[C@H](C)[C@@H]1NC(=O)[C@@H]2CCCN2C(=O)[C@@H]2CCCN2C(=O)[C@@H]2CCCN2C(=O)[C@H](CC(C)C)NC(=O)CNC(=O)CNC(=O)[C@H](Cc2ccccc2)NC1=O [Heterophyllin B] (10 µM) | 0 | 0 | 0 | 0 | 0 | 0 | 0 | 0 | 0 | 0
24 | CCCCCC1CC1CC1CC1CCCCCCCC(=O)O (stereo not given) (10 µM) | 0 | 0 | 0 | 0 | 0 | 0 | 0 | 0 | 0 | 0
25 | O=C(N/N=C/c1ccc([N+](=O)[O-])o1)c1ccc(O)cc1 [Nifuroxazide] (10 µM) | 3 | 0 | 0 | 2 | 0 | 2 | 3 | 2 | 0 | 1

Pulled by structure from above, 2 records:
Row | Compound | number of time points [1] | number of time points [2] | number of time points [3] | number of time points [4] | number of time points [5] | number of time points [6] | number of time points [7] | number of time points [8] | number of time points [9] | number of time points [10]
12 | N#Cc1c[nH]c2ccc(-c3ccc(-c4c(O)cccc4O)cc3)cc12 (10 µM) | 0 | 0 | 0 | 0 | 0 | 0 | 0 | 0 | 0 | 0
4 | C[C@@]12CCc3occc3[C@H]1CC[C@@]13C[C@@H](CC[C@H]12)[C@@](O)(CO)C3 [Cafestol] (10 µM) | 0 | 0 | 0 | 0 | 0 | 0 | 0 | 0 | 0 | 0

Next part

Row | Compound | number of time points [1] | number of time points [2] | number of time points [3] | number of time points [4] | number of time points [5] | number of time points [6] | number of time points [7] | number of time points [8] | number of time points [9] | number of time points [10]
26 | CCOc1cc(C(=O)N2CCC(N3CCN(C)CC3)CC2)ccc1Nc1ncc2c(n1)N(S(C)(=O)=O)c1ccccc1C(=O)N2C (10 µM) | 0 | 0 | 0 | 0 | 0 | 0 | 0 | 0 | 0 | 0
27 | CNC(=O)Nc1cc(Oc2cncc(C)c2)c(-c2ccc(OCC(C)(C)O)nc2)cn1 (2.5 µM) | 0 | 0 | 0 | 0 | 0 | 0 | 0 | 0 | 0 | 0
28 | CCN1C(C)(C)CC(Oc2ccc(C(=O)Nc3ccc(NC(=O)Nc4cc(C(C)(C)C)on4)cc3)nc2)CC1(C)C (10 µM) | 0 | 0 | 0 | 0 | 0 | 0 | 0 | 0 | 0 | 0
29 | COc1ccc(-c2cnc3c(-c4cccc5ncccc45)cnn3c2)cc1 (10 µM) | 0 | 0 | 0 | 0 | 0 | 0 | 0 | 0 | 0 | 0
30 | Cc1cc([N+](=O)[O-])c(NS(=O)(=O)c2cccc(C(=O)O)c2)cc1-c1cccnc1 [Alofanib] (10 µM) | 0 | 0 | 0 | 0 | 0 | 0 | 0 | 0 | 0 | 0
31 | O=C1NCCSc2c1sc1ccc(O)cc21 (2.5 µM) | 0 | 0 | 0 | 0 | 0 | 1 | 0 | 0 | 0 | 0
32 | O=C(O)[C@]1(Cc2cccc(Nc3nccs3)n2)CC[C@@H](Oc2cccc(Cl)c2F)CC1 (2.5 µM) | 0 | 0 | 0 | 2 | 0 | 1 | 2 | 1 | 0 | 1
33 | C=CC(=O)Nc1cccc(Oc2nc(Nc3ccc(N4CCN(C)CC4)cc3)nc3ccsc23)c1 [Olmutinib] (2.5 µM) | 0 | 0 | 0 | 0 | 0 | 0 | 0 | 0 | 0 | 0
34 | Cc1c(Br)c(Br)c2c3c1nc(N1CCNCC1)n3CCC2 [SEL120-34A (monohydrochloride)] (2.5 µM) | 0 | 0 | 0 | 0 | 0 | 0 | 0 | 0 | 0 | 0
35 | Cc1nc(NC(=O)N2CCC[C@H]2C(N)=O)sc1-c1csc(C(C)(C)C)n1 (10 µM) | 0 | 0 | 0 | 0 | 0 | 0 | 0 | 0 | 0 | 0
36 | CC[C@@H]1CN(C(=O)NCC(F)(F)F)C[C@@H]1c1cnc2cnc3[nH]ccc3n12 [Upadacitinib] (10 µM) | 0 | 0 | 0 | 0 | 0 | 0 | 0 | 0 | 0 | 0
37 | CCc1ccc(NC(=O)Nc2ccccc2)cc1 (10 µM) | 0 | 0 | 0 | 0 | 0 | 0 | 0 | 0 | 0 | 0
38 | O=C(O)/C=C/c1cc(Br)c(Br)c(Br)c1Br (10 µM) | 0 | 0 | 0 | 0 | 0 | 0 | 0 | 0 | 0 | 0
39 | COc1cc(-c2cc(-c3cccc(O)c3)cnc2N)cc(OC)c1OC (2.5 µM) | 0 | 0 | 0 | 0 | 0 | 1 | 1 | 2 | 0 | 1
40 | COC(=O)c1cc2c(OC(C)C)cc(OC(C)C)cc2[nH]1 (2.5 µM) | 0 | 0 | 0 | 0 | 0 | 0 | 0 | 0 | 0 | 0
41 | CS(=O)(=O)N1CCN(Cc2cn3cc(-c4cnc(N)nc4)nc(N4CCOCC4)c3n2)CC1 (10 µM) | 0 | 0 | 0 | 0 | 0 | 0 | 0 | 0 | 0 | 0
42 | C[C@@H](Nc1cc(F)cc(F)c1)c1cc(C(=O)N(C)C)cc2c(=O)cc(N3CCOCC3)oc12 (10 µM) | 0 | 0 | 0 | 0 | 0 | 0 | 0 | 0 | 0 | 0
43 | CCCCNc1ncc2c(-c3ccc(CN4CCN(C)CC4)cc3)cn([C@H]3CC[C@H](O)CC3)c2n1 [UNC2025 (hydrochloride)] (2.5 µM) | 2 | 0 | 0 | 1 | 0 | 0 | 0 | 1 | 0 | 0
44 | CN(C)CCCn1cc(C2=C(c3c[nH]c4ccccc34)C(=O)NC2=O)c2ccccc21 [Bisindolylmaleimide I] (2.5 µM) | 0 | 0 | 0 | 0 | 0 | 0 | 0 | 0 | 0 | 0
45 | O=c1cc(N2CCOCC2)oc2c1ccc1ccccc12 (2 µM) | 0 | 0 | 0 | 0 | 0 | 0 | 0 | 0 | 0 | 0
46 | COc1cc2nccc(Oc3ccc(NC(=O)Nc4ccc(F)cc4F)c(F)c3)c2cc1OC (10 µM) | 2 | 0 | 0 | 0 | 0 | 0 | 0 | 0 | 0 | 0
47 | C=CC(=O)N[C@H]1CCOC[C@H]1Nc1ncc2cc(-c3c(Cl)c(OC)cc(OC)c3Cl)ccc2n1 [Fisogatinib] (10 µM) | 0 | 0 | 0 | 0 | 0 | 0 | 0 | 0 | 0 | 0
48 | CC(C)[C@H](CO)Nc1nc(Nc2ccc(C(=O)O)c(Cl)c2)c2ncn(C(C)C)c2n1 [Purvalanol B] (10 µM) | 0 | 0 | 0 | 0 | 0 | 0 | 0 | 0 | 0 | 0
49 | CN(C/C=C/C(=O)Nc1ccc(C(=O)Nc2cccc(Nc3ncc(Cl)c(-c4c[nH]c5ccccc45)n3)c2)cc1)CCCNC(=O)NCCOCCOCCOCCNC(=O)CCCC[C@@H]1SC[C@@H]2NC(=O)N[C@@H]21 (2.5 µM) | 0 | 0 | 0 | 2 | 2 | 0 | 0 | 0 | 0 | 0
